Results as given in PubChem BioAssay AID493014 (National Center for Advancing Translational Sciences (NCATS), 2011).
The list shows a part of the results. Further columns of the screen follow, without active or inactive calls. The list favours compounds with an active or inconclusive main result. Potencies come from curve fits of mixed quality, noted in brackets.

Assay: qHTS Assay to Find Inhibitors of Chronic Active B-Cell Receptor Signaling
Settings: ABC-DLBCL IkBa-CBG/CBR reporter, luminescence ratio (green luciferase fused to IkBa over red control in TMD8 lymphoma cells), 4 h
Method in brief: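 Doxycycline induced both beetle luciferases in TMD8 lymphoma cells; IKK-driven degradation limits the IkappaBalpha-fused green signal, while red luminescence normalises for cell number and nonspecific effects. Compounds tested up to 46 uM, 4 hrs.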

[1] = measured here: CBR red luminescence, cell number
[2] = measured here: IkBa-CBG green luminescence

CCN(CC)C(=O)c1sc2nc(-c3cccs3)cc(-c3cccs3)c2c1N
AC50 [1]: 35.5 µM [falling, single point]

COc1ccc2[nH]c(C(=O)O)c(NC(=O)c3cc(OC)c(OC)c(OC)c3)c2c1
AC50 [1]: 1.12 µM [rising, partial curve, poor fit]

COc1cc2c(cc1OC)CN(C(=O)c1ccc([N+](=O)[O-])o1)CC2
AC50 [1]: 0.708 µM [rising, partial curve, poor fit]

CCc1ccc(C(=O)N/N=C(\C)c2ccncc2)s1
AC50 [1]: 15.8 µM [falling, partial curve, poor fit]

CCOc1ccc(OCCC(=O)OCC(=O)N2CCN(S(=O)(=O)c3ccc(C)cc3)CC2)cc1
AC50 [1]: 10.3 µM [falling, partial curve] | AC50 [2]: 11.6 µM [rising, partial curve, poor fit]

COc1cc2c(c(OC)c1OC)-c1ccc(OC)c(=O)cc1[C@@H](N(C)CC#CCO)CC2
AC50 [1]: 0.794 µM [rising, full curve] | AC50 [2]: 1 µM [falling, full curve]

O=C(COc1ccccc1C(=O)NCc1ccncc1)Nc1ccc(Br)cc1
AC50 [1]: 35.5 µM [falling, single point]

Cc1ccnc(NC(=O)c2ccccc2NC(=O)c2ccccc2)c1
AC50 [1]: 12.6 µM [rising, partial curve, poor fit]

Cc1ccsc1/C=N/Nc1ccc(F)cc1F
AC50 [1]: 28.2 µM [rising, single point]

CN(c1ccccc1)S(=O)(=O)c1cccc(NC(=O)c2ccc3ncsc3c2)c1
AC50 [1]: 17.8 µM [falling, partial curve, poor fit]

N#Cc1ccccc1OCC(=O)N1CCN(C(=O)c2ccco2)CC1
AC50 [1]: 3.98 µM [falling, full curve, poor fit]

Cn1c(=O)c2c(nc(N/N=C/c3ccncc3)n2Cc2ccccc2)n(C)c1=O
AC50 [1]: 6.31 µM [falling, partial curve, poor fit]

CC1CN(c2nn3c(=O)c4ccccc4nc3c3ccccc23)CC(C)O1 (centres undefined)
AC50 [1]: 3.66 µM [falling, partial curve, poor fit]

COc1cccc(/C=C/C(=O)OCC(=O)c2ccc3c(c2)NC(=O)CO3)c1
AC50 [1]: 6.51 µM [rising, single point]

CC(C)c1nnc(NC(=O)C2CCCO2)s1 (centres undefined)
AC50 [1]: 12.6 µM [rising, single point]

COc1ccc(N2CCN(C(=O)C34CCC(C)(C(=O)C3)C4(C)C)CC2)cc1 (centres undefined)
AC50 [1]: 29.1 µM [rising, single point]

NC(=O)c1ccsc1NC(=O)COC(=O)Cc1ccccc1Cl
AC50 [1]: 23.1 µM [falling, partial curve]

CCOc1ccc(NS(=O)(=O)c2ccc(NS(=O)(=O)c3cccs3)cc2)cc1
AC50 [1]: 7.08 µM [falling, partial curve, poor fit]

COc1cccc(C2=CC(c3ccc(OC)c(OC)c3OC)n3nnnc3N2)c1 (centres undefined)
AC50 [1]: 29.1 µM [falling, single point]

COc1ccc(C(=O)COC(=O)c2cccnc2Cl)c(OC)c1
AC50 [1]: 31.6 µM [falling, single point]

O=C(c1ccc(Cl)cc1)c1cnc(-c2ccc(Cl)cc2)s1
AC50 [1]: 0.398 µM [falling, partial curve, poor fit]

O=C(c1ccc(COc2ccccc2Br)cc1)N1CCCCCC1
AC50 [1]: 12.6 µM [falling, partial curve, poor fit]

Cc1cc(C)c(C#N)c(SCc2ccccc2)n1
AC50 [1]: 23.1 µM [rising, single point]

CC1(C)CC(=O)/C(=C\c2cccc([N+](=O)[O-])c2)C(C)(C)N1
AC50 [1]: 13 µM [falling, partial curve]

Cc1cc(C)n2nc(SCCCC(=O)c3ccccc3)nc2n1
AC50 [1]: 14.1 µM [rising, single point]

Cc1ccc(NC(=S)NC(NC(=O)c2ccco2)C(Cl)(Cl)Cl)cc1 (centres undefined)
AC50 [1]: 20.6 µM [falling, partial curve, poor fit]

Cc1cnc(C(=O)Nc2ccccc2-c2ccc(C)o2)cn1
AC50 [1]: 10.3 µM [falling, single point]

Cn1cccc1CC(=O)N/N=C/c1ccc(Cl)cc1
AC50 [1]: 35.5 µM [falling, single point]

Cc1cc(Nc2ccc(Br)cc2)n2nc(C)nc2n1
AC50 [1]: 20.6 µM [falling, single point]

O=C(COc1ccc2c(c1)CCC2)N1CCN(c2ccccc2F)CC1
AC50 [1]: 0.0731 µM [rising, full curve, poor fit]

COc1cc(C=O)ccc1OCCSc1ccc(C)cc1
AC50 [1]: 5.8 µM [rising, full curve]

CC(C)N(c1ccccc1)c1ccc(NC(=O)CCl)cc1
AC50 [1]: 3.55 µM [falling, full curve]

Cc1nn2c([nH]c(=O)c3ccccc32)c1C=O
AC50 [1]: 1.12 µM [falling, full curve, poor fit]

Cc1ccc(/C=C(\C#N)C(=O)Nc2ccccn2)o1
AC50 [1]: 5.01 µM [falling, full curve]

CCN(CC)CCNC(=O)c1ccc(NC(=O)c2cccc(S(=O)(=O)N3c4ccccc4CC3C)c2)cc1 (centres undefined)
AC50 [1]: 3.55 µM [falling, partial curve]

Cc1c(Cl)cnc(NC(=O)COC(=O)[C@@H](NC(=O)c2ccco2)C(C)C)c1Cl
AC50 [1]: 0.164 µM [rising, full curve, poor fit]

COc1c(Cl)cccc1-c1cn2ccccc2n1
AC50 [1]: 0.631 µM [rising, partial curve, poor fit]

COc1cccc(NC(=O)C2CC(=O)N(Cc3ccc(C)cc3)C2)c1 (centres undefined)
AC50 [1]: 8.91 µM [falling, partial curve, poor fit]

Cc1cccc(-n2c(C)cc(C=C3C(=O)c4ccccc4C3=O)c2C)c1
AC50 [1]: 3.16 µM [rising, partial curve, poor fit]

CC(=O)N(O)CCCCCNC(=O)CCC(=O)N(O)CCCCCNC(=O)CCC(=O)N(O)CCCCCNC(=O)CCC(=O)O
AC50 [1]: 6.51 µM [rising, single point]

Cc1ccc(F)cc1NC(=O)C1CCN(c2cnccn2)CC1
AC50 [1]: 3.55 µM [rising, partial curve, poor fit]

COc1ccccc1CCNC(=O)CSc1nnc2ccc(-c3ccncc3)nn12
AC50 [1]: 12.6 µM [rising, partial curve, poor fit]

CCC(C(=O)Nc1ccsc1C(=O)OC)c1ccccc1 (centres undefined)
AC50 [1]: 12.6 µM [rising, single point]

CC(C)Sc1nnc(NC(=O)CCc2ccccc2)s1
AC50 [1]: 2.82 µM [rising, full curve, poor fit]

CCC(CC)C(=O)c1c[nH]c(C(=O)NC2CCCCCC2)c1
AC50 [1]: 11.2 µM [rising, partial curve, poor fit]

Nc1c(S(=O)(=O)c2cccs2)c2nc3ccccc3nc2n1Cc1cccs1
AC50 [1]: 3.98 µM [falling, partial curve, poor fit]

Fc1ccc(NC(=S)N/N=C/c2ccc(F)c(F)c2)c(F)c1
AC50 [1]: 0.326 µM [falling, full curve]

O=C(Nc1ccc(OC(F)(F)F)cc1)c1cnccn1
AC50 [1]: 11.2 µM [falling, single point]

COCCNc1ncnc2c1cnn2-c1ccc(Cl)cc1
AC50 [1]: 14.1 µM [falling, single point]

CCOC(=O)c1sc(NC(=O)c2ccc(C)o2)nc1C
AC50 [1]: 0.224 µM [falling, full curve]

O=C(NCc1ccccc1)C1CCCC1
AC50 [1]: 5.62 µM [falling, single point]

CC(C)CC(NC(=O)c1cccs1)c1nnc(SCc2ccc(Cl)c(Cl)c2)n1C (centres undefined)
AC50 [1]: 20.6 µM [falling, partial curve]

NC(=O)c1ccsc1NC(=O)c1ccc(N2CCCC2=O)cc1
AC50 [1]: 12.6 µM [falling, partial curve]

CCNC(=S)N/N=C/c1sccc1C
AC50 [1]: 35.5 µM [rising, single point] | AC50 [2]: 3.98 µM [falling, full curve]

CC1=NN(S(=O)(=O)c2ccc(C)cc2)C(=O)c2ccccc2O1
AC50 [1]: 22.4 µM [rising, single point]

Cn1cccc1CC(=O)NNC(=O)Nc1ccc(Cl)cc1
AC50 [1]: 5.8 µM [rising, full curve, poor fit]

CCc1nc(NC(C)C)c2oc3ccccc3c2n1
AC50 [1]: 2.51 µM [falling, partial curve, poor fit]

COc1ccc(/C=N/NC(=O)c2ccoc2C)cc1CN1CCN(c2ccc(F)cc2)CC1
AC50 [1]: 20 µM [falling, single point]

CCCCCCCCCC(=O)Nc1cccnc1
AC50 [1]: 3.16 µM [rising, single point]

COc1ccccc1NC(=O)Nc1ccc(CC#N)cc1
AC50 [1]: 0.316 µM [falling, full curve, poor fit]

Cn1ccnc1SCC(=O)c1cccc(Br)c1
AC50 [1]: 6.51 µM [rising, single point]

CC(=O)Nc1ccc2c(c1)C(=O)N(C1CCCCC1)C2=O
AC50 [1]: 0.291 µM [rising, full curve, poor fit]

Cc1ccc(C(=O)C(C)OC(=O)CNS(=O)(=O)c2ccc(C)cc2)cc1 (centres undefined)
AC50 [1]: 29.1 µM [rising, single point]

Cc1cccc(/C=N/Nc2nncc3ccccc23)c1
AC50 [1]: 7.08 µM [falling, partial curve, poor fit]

O=C(Cc1cc(=O)oc2cc(O)ccc12)NCC1CCC(C(=O)O)CC1 (centres undefined)
AC50 [1]: 35.5 µM [rising, single point]

O=C(N/N=C/C(Br)=C/c1ccccc1)c1cccnc1
AC50 [1]: 35.5 µM [falling, single point]
